The experiment relates to nude mice, LX-1 lung xenograft intrarenal, tumor weight T/C. Description: NCI In Vivo Anticancer Drug Screen. Data for tumor model Human Lung LX-1 Xenograft (intrarenal inoculation) in NU/NU Swiss (nude) mice. The following applies: T/C endpoint: mean tumor weight change, higher T/C = larger tumour; for T/C: evaluated on day 11. A digest of the protocol:
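In vivo, transplantable tumor; compound vs vehicle arms; tumor size measured; value = T/C.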

Setting [1] is: dose: 100.0 mg/kg/injection, schedule: Q04DX003 (sc), vehicle: suspension in saline.
[2] abbreviates: dose: 300.0 mg/kg/injection, schedule: Q04DX003 (sc), vehicle: saline with Tween-80.
The mark [3] stands for this setting: dose: 600.0 mg/kg/injection, schedule: Q04DX003 (sc), vehicle: saline with Tween-80.
The mark [4] stands for this setting: dose: 200.0 mg/kg/injection, schedule: Q01DX010 (sc), vehicle: saline with Tween-80.
Where [5] appears, read: dose: 200.0 mg/kg/injection, schedule: Q01DX010 (sc), vehicle: Klucel (hydroxypropylcellulose) (HPC).
Setting [6] is: dose: 400.0 mg/kg/injection, schedule: Q04DX003 (sc), vehicle: saline with Tween-80.

Drawing on PubChem BioAssay AID264 (DTP/NCI, 2004), this text covers survivor count and T/C for 24 compounds.

The list does not hold the whole screen: it gathers tests that were run many times, whatever their T/C, doses with no T/C, and many T/C values between a quarter and a half above the control. Other doses and runs of a compound stand elsewhere. T/C is the treated group as % of the vehicle group. Schedules are NCI's codes, read here as Q, the interval in days (D) or hours (H), X, the number of doses. Some T/C values carry the count of animals alive at the toxicity check (mostly the fifth day); without a count, all were alive then. Some doses have a count of surviving animals in place of a T/C: the source files T/C as zero there, which appears to mark a toxic dose or a test without result, not a measured value. Survivors were counted at the toxicity check, usually on the fifth day, unless a day is given; later deaths do not show. Some entries were tested several times; the results are listed from low to high.

Regarding `COc1ccc(-c2csc(=[N+]3CCCCC3)s2)cc1`, the survivor count reads like this: (dose: 25.0 mg/kg/injection, schedule: Q04DX003 (sc), vehicle: water) 1 of 6 on day 11; (dose: 50.0 mg/kg/injection, schedule: Q04DX003 (sc), vehicle: water) 0 of 6 on day 11; (dose: 100.0 mg/kg/injection, schedule: Q04DX003 (sc), vehicle: water) 0 of 6 on day 11; (dose: 200.0 mg/kg/injection, schedule: Q04DX003 (sc), vehicle: water) 0 of 6 on day 11.
Take `CC(C)=CCNc1ncnc2c1ncn2C1OC(CO)C(O)C1O` (centres undefined): the T/C under setting [1] was 125 % of control.
With `CC(=S)NC(O)C(=O)c1ccccc1` (centres undefined), the T/C under setting [2] is 126 % of control.
`O=C(Nc1cccc2c(OC(=O)C(Cl)Cl)c(N=Nc3ccc(S(=O)(=O)Nc4nccs4)cc3)cc(N=Nc3ccc(S(=O)(=O)Nc4nccs4)cc3)c12)C(Cl)Cl` (tested in a mixture with another compound): the T/C (dose: 200.0 mg/kg/injection, schedule: Q04DX003 (sc), vehicle: saline with Tween-80) was 136 % of control.
Turning to `N#CC(=C1C=CC(=NO)C=C1)c1ccc(Cl)cc1`, the T/C under setting [2] is 144 % of control and the T/C under setting [3] is 143 % of control.
With `O=Cc1ccc(C(Cl)(Cl)Cl)cc1`, the T/C under setting [4] is 128 % of control.
For the compound `C[C@@H](CN1CC(=O)NC(=O)C1)N1CC(=O)NC(=O)C1`, the survivor count is 0 of 3 on day 11 (dose: 100.0 mg/kg/injection, schedule: Q01DX010 (sc), vehicle: saline with Tween-80); 0 of 3 on day 11 and 1 of 3 on day 11 under setting [4]; 0 of 3 on day 11 (dose: 400.0 mg/kg/injection, schedule: Q01DX010 (sc), vehicle: saline with Tween-80); 0 of 2 on day 11 (dose: 800.0 mg/kg/injection, schedule: Q01DX010 (sc), vehicle: saline with Tween-80).
As to `C=CC(=O)NCNC(=O)C=C`, the survivor count reads like this: (dose: 50.0 mg/kg/injection, schedule: Q01DX010 (sc), vehicle: saline) 1 of 3 on day 11; (dose: 200.0 mg/kg/injection, schedule: Q01DX010 (sc), vehicle: saline) 1 of 3 on day 11.
As for `S=c1[nH]cc2cnccn12`, under setting [3], the T/C is 145 % of control.
Take `N#CC(C#N)=C/C=C/c1cccc([N+](=O)[O-])c1`: the T/C was 133 % of control (dose: 6.25 mg/kg/injection, schedule: Q01DX010 (sc), vehicle: Klucel (hydroxypropylcellulose) (HPC)); 148 % of control (dose: 12.5 mg/kg/injection, schedule: Q01DX010 (sc), vehicle: Klucel (hydroxypropylcellulose) (HPC)); 143 % of control [2 of 3 alive on day 11] under setting [5].
With `Cc1cc(Nc2ccc3c(c2)OCO3)c2cc3c(cc2n1)OCO3`, the T/C (dose: 600.0 mg/kg/injection, schedule: Q04DX003 (sc), vehicle: Klucel (hydroxypropylcellulose) (HPC)) was 148 % of control [5 of 6 alive on day 11].
With `CC1CN1C(=O)NCCCCCCNC(=O)N1CC1C` (centres undefined), the survivor count was 0 of 6 on day 11 and 3 of 6 on day 11 (dose: 80.0 mg/kg/injection, schedule: Q04DX003 (sc), vehicle: Klucel (hydroxypropylcellulose) (HPC)); 0 of 6 on day 11 (dose: 160.0 mg/kg/injection, schedule: Q04DX003 (sc), vehicle: Klucel (hydroxypropylcellulose) (HPC)).
With `CCN(CC)CC[n+]1ccc2c(C)c3[nH]c4ccc(O)cc4c3c(C)c2c1`, the T/C (dose: 12.5 mg/kg/injection, schedule: Q04DX003 (sc), vehicle: suspension in saline) is 139 % of control. Moreover, the survivor count under setting [1] is 3 of 6 on day 11.
As for `[Cl][Pt+2][Cl].[NH-]C1CCC1.[NH2-]`, where the note is “dose: 25.0 mg/kg/injection, schedule: Q04DX003 (sc), vehicle: suspension in saline”, the T/C is 136 % of control. Besides, the survivor count is on record as 2 of 6 on day 11 (dose: 50.0 mg/kg/injection, schedule: Q04DX003 (sc), vehicle: suspension in saline) and 0 of 6 on day 11 under setting [1].
In the case of `C=C(OP(=O)(OC)OC)Sc1ccccc1C`, the survivor count is reported as 0 of 6 on day 11 (dose: 12.5 mg/kg/injection, schedule: Q04DX003 (sc), vehicle: Klucel (hydroxypropylcellulose) (HPC)); 0 of 6 on day 11 (dose: 25.0 mg/kg/injection, schedule: Q04DX003 (sc), vehicle: Klucel (hydroxypropylcellulose) (HPC)); 0 of 6 on day 11 (dose: 50.0 mg/kg/injection, schedule: Q04DX003 (sc), vehicle: Klucel (hydroxypropylcellulose) (HPC)); 0 of 6 on day 11 (dose: 100.0 mg/kg/injection, schedule: Q04DX003 (sc), vehicle: Klucel (hydroxypropylcellulose) (HPC)).
On to `C/C(=C\c1ccccc1)[N+](=O)[O-]`, for which, for the setting “dose: 400.0 mg/kg/injection, schedule: Q01DX010 (sc), vehicle: Klucel (hydroxypropylcellulose) (HPC)”, the survivor count is given as 1 of 3 on day 11.
`CC[PH+](CC)CC[S-].CC[PH+](CC)CC[S-].[Au+].[Au+]`: under “dose: 20.0 mg/kg/injection, schedule: Q04DX003 (sc), vehicle: Klucel (hydroxypropylcellulose) (HPC)”, the T/C was 142 % of control.
On to `Cn1cnc([N+](=O)[O-])c1S(=O)(=O)NCN1CCOCC1`, for which the survivor count under setting [5] is recorded as 0 of 3 on day 11.
With `Nc1nc([Se])c2ncn(C3OC(CO)C(O)C3O)c2n1` (centres undefined), the T/C (dose: 4.0 mg/kg/injection, schedule: Q01DX010 (sc), vehicle: saline) was 140 % of control. Besides, the survivor count by setting is: (dose: 16.0 mg/kg/injection, schedule: Q01DX010 (sc), vehicle: saline) 0 of 3 on day 11 and 1 of 3 on day 11; (dose: 32.0 mg/kg/injection, schedule: Q01DX010 (sc), vehicle: saline) 0 of 3 on day 11; (dose: 53.3 mg/kg/injection, schedule: Q04DX003 (sc), vehicle: saline) 1 of 2 on day 11.
As for `C=C(C)C(=NC(C)(C)C)Nc1ccccc1`, where the note is “dose: 100.0 mg/kg/injection, schedule: Q04DX003 (sc), vehicle: saline with Tween-80”, the T/C is 137 % of control. Further, under setting [6], the survivor count was 3 of 5 on day 11.
Consider `CC(=O)CC(C)=O.CC(=O)CC(C)=O.O=N[O-].O=N[O-].[Co]`, for which the T/C is 129 % of control (dose: 37.5 mg/kg/injection, schedule: Q04DX003 (sc), vehicle: saline with Tween-80) and 149 % of control (dose: 150.0 mg/kg/injection, schedule: Q04DX003 (sc), vehicle: saline with Tween-80). Moreover, the survivor count under setting [2] is 3 of 6 on day 11.
On to `CC1(c2ccc(Cl)cc2)OC(=O)C(=Cc2ccc([N+](=O)[O-])s2)C(=O)O1` (centres undefined), for which the T/C under setting [6] is 139 % of control.
As to `CN(C)CCN1C(=O)c2cccc3cc(N)cc(c23)C1=O`, the T/C runs as follows: (dose: 8.0 mg/kg/injection, schedule: Q04DX003 (sc), vehicle: saline with Tween-80) 126 % of control; (dose: 32.0 mg/kg/injection, schedule: Q04DX003 (sc), vehicle: saline with Tween-80) 128 % of control.
With `CCn1cnc2c(=S)nc[nH]c21`, the T/C reads like this: (dose: 75.0 mg/kg/injection, schedule: Q04DX003 (sc), vehicle: saline) 145 % of control; (dose: 300.0 mg/kg/injection, schedule: Q04DX003 (sc), vehicle: saline) 131 % of control.
